# Patent US20240294635A1
# No constants are given. Whether binding was seen depends on the method and setting. Some entries that bind do so weakly or less than the wild type.
# Target: cynomolgus/rhesus macaque CD47 protein, His Tag (ACRObiosystems, Cat. No. CD7-C52H1) (cynomolgus monkey (cynomolgus/rhesus macaque))
# Test: Biacore SPR
row,Binder,binding
1,"Xi2H8 (antibody, human IgG4 S228P, kappa, V domains shown) VH: QVQLKESGPGLVAPSQSLSITCTVSGFSLTNYGVHWVRQPPGKGLEWLGIIWAGGSTNYNSALMSRLSISKDNSKSQVFLKMNSLQTDDTAMYYCARDDYASMDYWGQGTSVTVSS VL: DAFMTQTPLSLPVSLGDQASISCRSSQSLVHSNGNTYLHWYLQKPGQSPKLLIYKVSNRFSGVPDRFSGSGSGTDFTLKISRVEAEDLGVYFCSQSTHVPYTLGGGTKLEIKR",binds
2,"Xi3F10 (antibody, human IgG4 S228P, kappa, V domains shown) VH: EVQLQQSVAELMKPGASVKIYCKATGYTFSRYWIEWVKQRPGHGLEWIGEFIPGSDTTNFNEKFKGKATFTAEISSNTAYMQLSSLTSEDSAVYFCARGGLRRMDYWGQGTSVTVSS VL: DIVMTQTPAIMSASPGEKVTMTCRASSSVSSTYLHWYQQKSGASPKLWIYTTSTLASGVPARFSGSGSGTSYSLTISSVEAEDAATYYCQQFSDSTWTFGGGTKLEIKR",binds
3,"Xi16E5 (antibody, human IgG4 S228P, kappa, V domains shown) VH: EVQLQQSGPELKKPGETVKISCKASGYTFTNYGMNWVKQVPGKGLKWMGWINTNTGEPTYAEEFKGRFAFSLETSARTAFLQINNLKNEDTATYFCTRFSHLRGPMDYWGQGASVTVSS VL: DAVMTQTPLSLPVSLGDQASISCRSSQSLVHSNGYTYLHWYLQKPGQSPKLLIYKVSNRFSGVPDRFSGSGSGTDFTLKISRLEAEDLGVYFCSQSTHVPPTFGGGTKLEIKR",binds
4,"Xi14A9 (antibody, human IgG4 S228P, kappa, V domains shown) VH: EVQLQQSGAEVARPGASVKLSCTVSGFNIEDDYIEWVKQRPEQGLEWIGRIDPANDKTKYAPKFQDKATITGDTSSNTAYLQLSSLTSEDTAVYYCTRPGLRRYYSMDYWGQGTSVTVSS VL: NIVLTQSPKSMSMSVGERVTLSCKASENVVSYVSWYQQKPEQSPKLLIYGASNRYTGVPDRFIGSGSSTDFTLIISSFQPEDLADYHCGQSYSYPLTFGAGTKLELKR",binds
5,"hz3F10-1.2 (antibody, human IgG4 S228P, kappa, V domains shown) VH: QVQLVQSGAEVKKPGSSVKVSCKASGYTFSRYWIEWVRQAPGQGLEWMGEFIPGSDTTNYAQKFQGRVTITAEISTNTAYMELSSLRSEDTAVYYCARGGLRRMDYWGQGTLVTVSS VL: DIQMTQSPSSLSASVGDRVTITCRASSSVSSTYLHWYQQKPGKAPKLLIYTTSTLASGVPSRFSGSGSGTDFTLTISSLQPEDFATYYCQQFSDSTWTFGQGTKLEIKR",binds
6,"hz3F10-2.2 (antibody, human IgG4 S228P, kappa, V domains shown) VH: QVQLVQSGAEVKKPGSSVKVSCKASGYTFSRYWIEWVRQAPGQGLEWMGEFIPGSDTTNYAQKFQGRVTITAEISTNTAYMELSSLRSEDTAVYYCARGGLRRMDYWGQGTLVTVSS VL: DIQMTQSPSSLSASVGDRVTITCRASSSVSSTYLHWYQQKPGKAPKLLIYTTSTLASGVPSRFSGSGSGTDFTLTISSLQPEDFATYYCQQFSESTWTFGQGTKLEIKR",binds
7,"hz3F10-4.2 (antibody, human IgG4 S228P, kappa, V domains shown) VH: QVQLVQSGAEVKKPGSSVKVSCKASGYTFSRYWIEWVRQAPGQGLEWMGEFIPGSDTTNYAQKFQGRVTITAEISTNTAYMELSSLRSEDTAVYYCARGGLRRMDYWGQGTLVTVSS VL: DIQMTQSPSSLSASVGDRVTITCRASSSVSSTYLHWYQQKPGKAPKLLIYTTSTLASGVPSRFSGSGSGTSYTLTISSLQPEDFATYYCQQFSESTWTFGQGTKLEIKR",binds
8,"hz3F10-5.2 (antibody, human IgG4 S228P, kappa, V domains shown) VH: QVQLVQSGAEVKKPGSSVKVSCKASGYTFSRYWIEWVRQAPGQGLEWMGEFIPGSDTTNYAQKFQGRVTITAEISTNTAYMELSSLRSEDTAVYYCARGGLRRMDYWGQGTLVTVSS VL: DIQMTQSPSSLSASVGDRVTITCRASSSVSSTYLHWYQQKPGKAPKLWIYTTSTLASGVPSRFSGSGSGTSYTLTISSLQPEDFATYYCQQFSDSTWTFGQGTKLEIKR",binds
9,"hz3F10-6.2 (antibody, human IgG4 S228P, kappa, V domains shown) VH: QVQLVQSGAEVKKPGSSVKVSCKASGYTFSRYWIEWVRQAPGQGLEWMGEFIPGSDTTNYAQKFQGRVTITAEISTNTAYMELSSLRSEDTAVYYCARGGLRRMDYWGQGTLVTVSS VL: DIQMTQSPSSLSASVGDRVTITCRASSSVSSTYLHWYQQKPGKAPKLWIYTTSTLASGVPSRFSGSGSGTSYTLTISSLQPEDFATYYCQQFSESTWTFGQGTKLEIKR",binds
10,"hz14A9-2.3 (antibody, human IgG4 S228P, kappa, V domains shown) VH: QVQLVQSGAEVKKPGASVKVSCKVSGFNIEDDYIEWVRQAPGQGLEWMGRIDPANDKTKYAQKFQGRVTMTGDTSTNTVYMELSSLRSEDTAVYYCARPGLRRYYSMDYWGQGTLVTVSS VL: DIQMTQSPSSLSASVGDRVTITCKASENVVSYVSWYQQKPGKAPKLLIYGASNRYTGVPSRFIGSGSSTDFTLTISSLQPEDFATYYCGQSYSYPLTFGQGTKLEIKR",binds
11,"hz14A9-2.4 (antibody, human IgG4 S228P, kappa, V domains shown) VH: QVQLVQSGAEVKKPGASVKVSCKVSGFNIEDDYIEWVRQAPGQGLEWMGRIDPANDKTKYAQKFQGRVTMTGDTSTNTVYMELSSLRSEDTAVYYCTRPGLRRYYSMDYWGQGTLVTVSS VL: DIQMTQSPSSLSASVGDRVTITCKASENVVSYVSWYQQKPGKAPKLLIYGASNRYTGVPSRFIGSGSSTDFTLTISSLQPEDFATYYCGQSYSYPLTFGQGTKLEIKR",binds
